Measured values taken from paper PMC11705415.
Results are given in words; binding and its absence hold for the method and conditions named. In cells and extracts the contact can be indirect. Some results given as binding are weak or reduced against the parent protein; the word gives no strength. For some assays here: Tags and fused reporters may be left off the sequences shown.

By UniProt entry, the sequences of proteins in these tests, tags left out. Where a name states a change or a piece, a line headed by the entry shows the natural chain unless it says otherwise. Chains listed by the source or under a name are the forms on record and can include a tag or linker.
UniProt P33215: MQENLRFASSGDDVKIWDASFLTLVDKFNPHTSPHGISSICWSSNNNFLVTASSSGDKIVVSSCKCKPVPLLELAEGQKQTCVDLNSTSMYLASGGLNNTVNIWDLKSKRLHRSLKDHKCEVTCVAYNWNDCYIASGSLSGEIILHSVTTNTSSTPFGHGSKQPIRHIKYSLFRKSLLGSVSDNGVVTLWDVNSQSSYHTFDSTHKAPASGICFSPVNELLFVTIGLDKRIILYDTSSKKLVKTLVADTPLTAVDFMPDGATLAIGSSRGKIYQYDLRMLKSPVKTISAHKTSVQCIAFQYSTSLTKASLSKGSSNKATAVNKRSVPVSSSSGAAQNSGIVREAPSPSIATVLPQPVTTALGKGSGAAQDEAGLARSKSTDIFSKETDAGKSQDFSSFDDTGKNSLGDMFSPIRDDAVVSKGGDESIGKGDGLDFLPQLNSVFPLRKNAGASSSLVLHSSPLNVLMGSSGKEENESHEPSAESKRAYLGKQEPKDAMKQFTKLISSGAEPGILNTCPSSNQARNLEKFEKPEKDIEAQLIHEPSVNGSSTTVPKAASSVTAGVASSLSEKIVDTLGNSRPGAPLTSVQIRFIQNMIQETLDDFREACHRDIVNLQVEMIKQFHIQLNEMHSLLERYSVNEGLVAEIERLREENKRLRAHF
UniProt P62069: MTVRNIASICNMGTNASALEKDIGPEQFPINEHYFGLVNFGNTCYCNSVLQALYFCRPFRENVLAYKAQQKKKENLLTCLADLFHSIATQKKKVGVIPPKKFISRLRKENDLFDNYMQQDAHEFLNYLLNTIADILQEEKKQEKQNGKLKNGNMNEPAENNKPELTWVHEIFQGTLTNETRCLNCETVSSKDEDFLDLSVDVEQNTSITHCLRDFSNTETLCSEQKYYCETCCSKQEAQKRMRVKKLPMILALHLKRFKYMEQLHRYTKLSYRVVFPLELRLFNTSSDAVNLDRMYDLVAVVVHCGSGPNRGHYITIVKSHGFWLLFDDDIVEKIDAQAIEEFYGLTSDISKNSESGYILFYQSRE
HA-USP46-ΔK92 (P62069, form named): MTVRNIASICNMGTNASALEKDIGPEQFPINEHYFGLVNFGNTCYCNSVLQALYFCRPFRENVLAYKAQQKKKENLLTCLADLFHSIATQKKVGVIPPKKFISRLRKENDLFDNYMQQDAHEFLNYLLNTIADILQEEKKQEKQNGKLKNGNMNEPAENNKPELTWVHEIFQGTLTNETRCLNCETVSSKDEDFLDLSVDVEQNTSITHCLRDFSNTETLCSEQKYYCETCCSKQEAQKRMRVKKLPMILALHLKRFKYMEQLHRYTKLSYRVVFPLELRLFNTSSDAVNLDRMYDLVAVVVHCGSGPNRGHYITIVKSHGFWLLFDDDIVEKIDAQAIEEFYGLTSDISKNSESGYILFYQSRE

Assays:
Assay in all cases: co-IP; Neuro2a cells co-transfected with HA-USP46 and VC-tagged protein; lysis in TNE buffer with 0.1% Triton X-100; precipitation of the VC-tagged protein with anti-GFP antibody and Protein G magnetic beads at 4 °C; HA-USP46 detected by western blotting
VC-tagged AHI1 = biological target: T1, VC-tagged AHI1 (UniProt Q8K3E5)
T1 sequence: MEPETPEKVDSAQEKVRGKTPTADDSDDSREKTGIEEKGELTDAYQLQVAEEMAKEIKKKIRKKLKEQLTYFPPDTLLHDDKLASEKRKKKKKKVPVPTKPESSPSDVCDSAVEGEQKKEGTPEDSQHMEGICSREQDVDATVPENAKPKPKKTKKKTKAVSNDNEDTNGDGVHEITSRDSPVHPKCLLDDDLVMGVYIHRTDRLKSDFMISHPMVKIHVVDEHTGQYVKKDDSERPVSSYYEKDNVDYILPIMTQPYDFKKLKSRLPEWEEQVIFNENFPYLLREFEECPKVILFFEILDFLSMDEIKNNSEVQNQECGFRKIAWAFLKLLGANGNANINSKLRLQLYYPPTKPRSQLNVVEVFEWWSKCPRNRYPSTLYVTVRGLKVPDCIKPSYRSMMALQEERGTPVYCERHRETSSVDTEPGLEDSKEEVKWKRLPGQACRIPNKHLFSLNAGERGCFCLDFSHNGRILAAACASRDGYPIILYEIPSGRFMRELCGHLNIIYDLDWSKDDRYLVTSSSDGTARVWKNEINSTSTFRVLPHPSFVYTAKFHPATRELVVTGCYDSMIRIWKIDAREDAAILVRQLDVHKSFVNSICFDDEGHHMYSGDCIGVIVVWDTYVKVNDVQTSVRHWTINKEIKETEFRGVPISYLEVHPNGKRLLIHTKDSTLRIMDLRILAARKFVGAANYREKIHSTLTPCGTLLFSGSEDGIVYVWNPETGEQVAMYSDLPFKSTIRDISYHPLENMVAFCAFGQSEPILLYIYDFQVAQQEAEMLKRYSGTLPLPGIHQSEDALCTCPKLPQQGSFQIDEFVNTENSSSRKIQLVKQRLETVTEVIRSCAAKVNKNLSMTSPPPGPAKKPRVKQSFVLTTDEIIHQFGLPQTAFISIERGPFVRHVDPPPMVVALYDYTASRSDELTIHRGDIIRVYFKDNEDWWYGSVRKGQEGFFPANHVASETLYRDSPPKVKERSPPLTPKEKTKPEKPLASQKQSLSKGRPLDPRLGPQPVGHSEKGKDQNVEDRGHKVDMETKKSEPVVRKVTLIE

VC-tagged NEDD1 = VC-tagged NEDD1 (UniProt P33215)
VC-tagged SNAP29 = biological target: T2, VC-tagged SNAP29 (UniProt Q9ERB0)
T2 sequence: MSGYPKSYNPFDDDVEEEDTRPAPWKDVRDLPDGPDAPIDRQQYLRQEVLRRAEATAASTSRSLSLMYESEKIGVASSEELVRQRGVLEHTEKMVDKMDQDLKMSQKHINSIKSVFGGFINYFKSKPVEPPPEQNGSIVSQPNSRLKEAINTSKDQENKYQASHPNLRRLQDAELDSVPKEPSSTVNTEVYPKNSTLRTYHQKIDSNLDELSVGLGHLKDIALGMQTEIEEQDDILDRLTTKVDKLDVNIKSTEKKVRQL

VC-tagged HOOK3 = biological target: T3, VC-tagged HOOK3 (UniProt Q8BUK6)
T3 sequence: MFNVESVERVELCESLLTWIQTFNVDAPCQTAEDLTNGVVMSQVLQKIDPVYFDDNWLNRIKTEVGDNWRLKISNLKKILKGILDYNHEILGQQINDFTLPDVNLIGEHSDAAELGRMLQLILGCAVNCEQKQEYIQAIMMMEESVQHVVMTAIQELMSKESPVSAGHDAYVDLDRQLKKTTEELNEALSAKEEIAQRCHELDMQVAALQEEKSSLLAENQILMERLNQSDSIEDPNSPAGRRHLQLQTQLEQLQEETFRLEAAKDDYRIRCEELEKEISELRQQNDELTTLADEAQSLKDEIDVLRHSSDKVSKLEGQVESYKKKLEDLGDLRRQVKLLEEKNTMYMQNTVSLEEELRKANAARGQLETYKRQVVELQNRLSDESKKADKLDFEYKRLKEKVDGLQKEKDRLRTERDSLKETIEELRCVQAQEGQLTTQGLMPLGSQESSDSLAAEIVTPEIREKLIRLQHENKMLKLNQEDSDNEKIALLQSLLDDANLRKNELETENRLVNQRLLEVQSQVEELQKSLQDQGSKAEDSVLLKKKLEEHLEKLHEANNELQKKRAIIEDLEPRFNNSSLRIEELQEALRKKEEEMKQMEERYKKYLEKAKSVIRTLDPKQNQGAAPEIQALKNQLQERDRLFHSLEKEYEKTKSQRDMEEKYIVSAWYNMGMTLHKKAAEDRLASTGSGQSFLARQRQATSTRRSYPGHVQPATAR

binding (VC-tagged AHI1) | binding (VC-tagged NEDD1) | binding (VC-tagged SNAP29) | binding (VC-tagged HOOK3) | Substance
binds | binds | binds | binds | HA-USP46-WT (from UniProt P62069 1-366) (enzyme)
binds | binds | binds | binds | HA-USP46-ΔK92 (from UniProt P62069 1-366) (enzyme)
